Source: article PMC6712171

Test system: M.DraR1 (ORF16000) (Deinococcus radiodurans R1)
Assay: EMSA
Conditions: 20 mM Tris-HCl pH 8.0, 100 mM KCl, 7 mM beta-mercaptoethanol, 0.1 mM EDTA, 0.1 mg/mL BSA, 0.5 mM or no SAM, 100 uM dsDNA, 0-1000 uM protein, 60 min at 4 C, recombinant protein, protein details: His-MBP (TEV-cleaved, removed)

Sequence	binding result	binding result (0.5 mM SAM)
CAGGTCGCGGCT / TAGCCGCGACCT [S2 cassette]	no binding	–
CAGGCCGCGTCT / TAGACGCGGCCT [S7 cassette]	no binding	–
CAGGCCGCGGCT / TAGCCGCGGCCT [S1 cassette]	–	binds
CAGGCTGCGGCT / TAGCCGCAGCCT [S3 cassette]	no binding	–
CAGGCCTCGGCT / TAGCCGAGGCCT [S4 cassette]	no binding	–
CAGGCCGCTGCT / TAGCAGCGGCCT [S6 cassette]	no binding	–
CAGGCCGTGGCT / TAGCCACGGCCT [S5 cassette]	no binding	–

For at least one entry, the source does not settle the construct or the ends of the probe. A negative result means that nothing was seen under these conditions.
